Results taken from the supplement of paper PMC11237882.
This is one part of the list. Values are worked out from sequencing counts and are noisy.

T1: Homer1 EVH1 domain
T1 chain: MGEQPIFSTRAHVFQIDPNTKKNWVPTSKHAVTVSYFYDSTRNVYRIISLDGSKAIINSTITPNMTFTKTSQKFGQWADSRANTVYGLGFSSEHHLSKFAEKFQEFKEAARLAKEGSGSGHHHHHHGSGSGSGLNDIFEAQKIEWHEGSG


Target: T1, Homer1 EVH1 domain
Assay: enrichment score (AUC of log2 frequency ratio across FACS sorting rounds) (log2 AUC); higher = stronger enrichment for Homer1 EVH1 binding

Row | Binder | enrichment score
1 | ADMVKTGFIMNIIGVFCVFLAVNTWGRAIFDLDHFP | 2.04
2 | FIYYHAMIFQSAMFTQGFLFLFLMIWTSFYMVTIFL | -0.293
3 | SLPESLELSSPRSPETDWGRPPGGDKDLASPHLGLG | 6.29
4 | YPPGPLAPPQPFGPGFVPPPPPPPYGPGRIPPPPPA | 2.1
5 | LREHLVRFERLRRAMELRRRREIAERERRERERIRI | -1.96
6 | NNFFCDRGQLLKLSCNNTLFTEFILFLMAVFILFGS | 3.43
7 | LARVMTLAHAMTLEGVMTPAGMMILAGMMTLAGVMT | 3.52
8 | PAFYSENNLGAVSLLLLLFGYATFSWMYLLAGLFHE | 3.77
9 | DEAPPRLRVLVSGASMVLPRAVAGLAASGLALLLWK | 0.608
10 | EDSPGLKVGPVPVLVMSLLFISSVFMLHIWGKYTRL | 0.36
11 | MREWWVQVGLLAVPLLAAYLHIPPPQLSPALHSWKS | -1.35
12 | QITEMFFEHLGVPAFYMSIQAVLALFAAGFTTGLVL | 1.53
13 | MPQALERADGSWAWVVLLATMVTQGLTLGFPTCIGI | 2.36
14 | LGHFLSELFVYGPAAPTIGVLAPLMVASFSILGMLV | 1.75
15 | LVNFVTEKNIISYPECMTQLYFFLVFAIAECHMLAA | 1.83
16 | SSTNNSIQTIDSTQALFLPIGASVSLLVMFFFFDSV | 2.63
17 | LREFQVIQDLVVSVLTYPLSHFVGYLLAFTLGIEYL | 3
18 | PIVAGHIVHSLGFEQLSLGMGLANLLYAPVLLLLRN | 0.869
19 | SASCAPLCTPGVDVYWSREDKRFAVVWLAIWAVLCF | 1.8
20 | KITAWIYGMGLCALFIVSTVFHIVSWKKSHLRTVEH | 0.813
21 | AMETLVCALGLAIGLVGFLVGTVLIIMGTYVSSVPR | -2.57
22 | FVATVPVIVAFIMLRAYFLQTSQQLKQLESEGRSPI | 3.41
23 | DPLGGSDTAKGYNLLKPMGKVVTYGMANLLSGPKRN | -0.288

Row | Binder | enrichment score
24 | SILVIGLLTALIGDLASHFGCTVGLKDSVNAVVFVA | -1.52
25 | ATTHSAHLVNDFICGGLLGAMLGFLFFPINVVKTRI | 3.61
26 | AQKKVKRTLPNPPPEEISTGTQSTFSTMGTVSRRRI | -2.22
27 | DFVDGPIHHRALLISVTVCSLLLVLIILFCYFRYKR | 1.06
28 | MGQPWAAGSTDGAPAQLPLVLTALWAAAVGLELAYV | 3.58
29 | EKVLWTAITLFIFLVCCQIPLFGIMSSDSADPFYWM | 2.68
30 | MKTLAGLVLGLVILDAAVTAPTLESINYDSETYDAT | 2.42
31 | MDRSLRNVLVVSFGFLLLFTAYGSLQSLQSSLYSEE | -1.97
32 | MGNWAVNEGLSIFVILVWLGLNVFLFVWYYRVYNIP | 1.83
33 | MAVVPLLLLGGLWSAVGASSLGVVTCGSVVKLLNTR | 1.03
34 | DHVLYTVYSTVGAFYFPTLLLIALYGRIYVEARSQS | 1.63
35 | TIQNVIKLVDELMEAPGDVETLAPPVRHLIATQLLS | 1.86
36 | MDPARKAGAQAMIWTAGWLLLLLLRGGAQALECYSY | 1.69
37 | LVFLIPFLHFIIFLFTLRCLEWKFGKKSMRKDPFFR | -1.35
38 | LTSLWSLSVAIFSVGGMIGSFSVGLFVNRFGRRNSM | -0.996
39 | MGSPRSALSCLLLHLLVLCLQAQEGPGRGPALGREL | -1.5
40 | TGIFIGHYAENVSMWIFALTAGLFMYVALVDMVPEM | 3.37
41 | SWLLPWYRYKTYYCLSVIIFFFVYIWHWALPLILNN | 0.371
42 | AGSGAATGISVSAYELNGLFSVLMLAWIFLPIYIAG | 2.09
43 | QNPWWALTGWLGTVVSTLMALLLSQDRSLIASGLYG | 2.36
44 | KAIESQFGSSVASYFLFLRWMYGVNMVLFILTFSLI | 2.43
45 | MAAPALSWRLPLLILLLPLATSWASAAVNGTSQFTS | 1.26
46 | PLPHPGAAPWPMAFPYQYPPPPHPYNPHPGFPELGY | 3.05
